Laboratory results: paper PMC8869655, “Identification of the Kinase-Substrate Recognition Interface between MYPT1 and Rho-Kinase” (Biomolecules, 2022)
Changes are numbered by the printed parent chain. These are yes or no findings as the source states them, for the method shown. In cells and extracts the contact can be indirect. For some assays here: Binding calls can cover weak binding; strength is not graded here. Where a sequence is shown, tags or fusion partners need not be part of it.

Legend:
Assay in all cases: pull-down; GST-MYPT1 fragment and GFP-kinase fragment co-transfected in COS7 cells; lysate incubated with Glutathione Sepharose beads 1 h at 4 °C in 20 mM Tris-HCl pH 7.5, 1 mM EDTA, 1 mM DTT, 50 mM NaCl, 0.5% NP-40; washed three times; immunoblot with anti-GST or anti-GFP
[1] = target: T1, GST-MYPT1 C-terminal fragment (592–1032 aa) (rat) (UniProt Q10728)
T1 sequence: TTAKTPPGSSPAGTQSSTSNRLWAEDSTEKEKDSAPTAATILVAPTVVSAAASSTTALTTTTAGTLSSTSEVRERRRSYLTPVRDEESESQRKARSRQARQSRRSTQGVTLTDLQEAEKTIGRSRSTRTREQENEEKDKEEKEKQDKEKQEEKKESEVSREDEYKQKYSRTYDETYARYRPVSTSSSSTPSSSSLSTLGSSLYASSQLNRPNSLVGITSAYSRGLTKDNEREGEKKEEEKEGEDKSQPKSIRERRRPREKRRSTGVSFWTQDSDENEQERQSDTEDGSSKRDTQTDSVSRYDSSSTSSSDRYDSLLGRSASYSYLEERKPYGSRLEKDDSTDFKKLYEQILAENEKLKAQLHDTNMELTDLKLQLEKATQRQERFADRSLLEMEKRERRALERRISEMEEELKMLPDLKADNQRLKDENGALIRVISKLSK

[2] = target: T2, GST-MYPT1 N-terminal fragment (1–300 aa) (rat) (UniProt Q10728)
T2 sequence: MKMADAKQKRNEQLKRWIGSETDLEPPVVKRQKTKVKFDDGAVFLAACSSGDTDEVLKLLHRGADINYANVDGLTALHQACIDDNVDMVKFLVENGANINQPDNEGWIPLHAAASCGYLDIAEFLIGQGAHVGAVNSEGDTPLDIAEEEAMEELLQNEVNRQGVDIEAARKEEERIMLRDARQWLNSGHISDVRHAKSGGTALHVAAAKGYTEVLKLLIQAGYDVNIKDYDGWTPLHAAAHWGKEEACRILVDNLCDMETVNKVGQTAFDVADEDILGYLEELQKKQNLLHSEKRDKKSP

[3] = target: T3, GST-MYPT1-655–715 aa (rat) (UniProt Q10728)
T3 sequence: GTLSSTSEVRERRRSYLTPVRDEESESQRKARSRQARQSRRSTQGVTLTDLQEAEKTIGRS

[4] = target: T4, GST-MYPT1-684–758 aa-696A/697A (rat) (UniProt Q10728)
T4 sequence: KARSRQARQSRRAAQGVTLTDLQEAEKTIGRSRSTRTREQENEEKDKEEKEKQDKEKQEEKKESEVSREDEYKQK

[5] = target: T5, GST-MYPT1-684–868 aa (rat) (UniProt Q10728)
T5 sequence: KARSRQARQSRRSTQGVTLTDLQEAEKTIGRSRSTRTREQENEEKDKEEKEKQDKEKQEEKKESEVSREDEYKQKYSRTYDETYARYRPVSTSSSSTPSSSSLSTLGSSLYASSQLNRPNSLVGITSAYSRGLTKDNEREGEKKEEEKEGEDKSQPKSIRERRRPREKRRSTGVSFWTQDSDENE

[6] = target: T6, GST-MYPT1-684–868 aa-4A (rat) (UniProt Q10728)
T6 sequence: T5 sequence with S13A, T14A, S171A, T172A

[7] = target: T7, GST-MYPT1-713–868 aa (rat) (UniProt Q10728)
T7 sequence: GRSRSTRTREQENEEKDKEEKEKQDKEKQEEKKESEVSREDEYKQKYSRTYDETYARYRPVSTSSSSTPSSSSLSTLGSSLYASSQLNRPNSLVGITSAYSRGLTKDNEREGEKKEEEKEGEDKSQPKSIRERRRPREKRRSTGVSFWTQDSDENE

[8] = target: T8, GST-MYPT1-758–868 aa (rat) (UniProt Q10728)
T8 sequence: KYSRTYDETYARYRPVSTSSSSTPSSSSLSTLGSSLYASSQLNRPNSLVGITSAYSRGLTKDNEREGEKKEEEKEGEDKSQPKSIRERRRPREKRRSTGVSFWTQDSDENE

GFP-Rho-kinase-cat-L (6–553 aa, long form of catalytic fragment) (bovine) (domain or fragment)
binding [1]: binds | binding [2]: no binding | binding [3]: binds | binding [4]: no binding | binding [5]: binds | binding [6]: binds | binding [7]: binds | binding [8]: binds
